We go through 1 compound from patent publication US20200323962A1, “LIPOPHILIC PEPTIDE PRODRUGS” (YISSUM RESEARCH DEVELOPMENT COMPANY OF THE HEBREW …, priority 2017, published 2020).

Molecules are shown by their SMILES.

The term Papp A→B denotes the apparent permeability from the apical to the basolateral side of a cell layer. Read a low Papp A→B as poor permeation.

Data set [1] is described as follows: in vitro. The note with it: human.
Data set [2] can be described thus: in vitro. The following applies: human, Caco-2, pH 7.4, Papp (AB).

Consider `CC(C)NCC(O)COc1ccc(CC(N)=O)cc1` (centres unmarked) [atenolol], for which the Papp A→B at 150 min in “in vitro [1]” (Caco-2, Caco-2 Papp A-to-B) was found to be 0.25 ×10⁻⁶ cm/s; in the data set “in vitro [1]” (Caco-2, Papp AB), 0.31 ± 0.08 ×10⁻⁶ cm/s. Further, the Papp A→B at 90 min, 10 μM stood at 0.8 ×10⁻⁶ cm/s in the data set “in vitro [2]” (Mean), 1 ×10⁻⁶ cm/s in the data set “in vitro [2]” (replicate 1) and 0.8 ×10⁻⁶ cm/s in the data set “in vitro [2]” (replicate 2).
